Like-named read-outs stand apart in the source and are kept apart here.
Assays:
MDCK cysts [1] = assay: cells; conditions: Canis lupus familiaris, 96 h, read-out: IC50 of inhibition of cystic growth
MDCK cysts [2] = conditions: read-out: IC50 of inhibition of cystic growth; MDCK cysts in 3D collagen I gel, 96 hours incubation, Alamar Blue

How did the K/BW ratio (jck mouse model of PKD; jck female, 150 mg/kg IP daily, continuous 5 W) turn out when `CC[C@H](CO)Nc1nc(NCc2ccccc2)c2ncn(C(C)C)c2n1` [Roscovitine, 6-benzylamino-2-(R)-[(1-ethyl-2-hydroxy)ethylamino]-9-isopropylpurine] was run?
Its K/BW ratio is 3.49 ± 0.42 %.

And the K/BW ratio (jck mouse model of PKD; jck male, 50 mg/kg IP daily, continuous 5 W)?
Its K/BW ratio is 6.55 ± 1.06 %.

What about the K/BW ratio (jck mouse model of PKD; jck male, 150 mg/kg IP daily, continuous 5 W (Table 2)) of the same compound?
The K/BW ratio was 4.17 ± 0.26 %.

And the K/BW ratio (jck mouse model of PKD; jck male, 150 mg/kg, daily dosing for 5 weeks (Table 2a))?
Its K/BW ratio is 4.23 ± 0.53 %.

What about the K/BW ratio (jck mouse model of PKD; jck male, 150 mg/kg, pulse treatment 5 W (1/1): 1 week on, 1 week off for 5 weeks) of the same compound?
The K/BW ratio was 4.56 ± 0.62 %.

What about the K/BW ratio (jck mouse model of PKD; jck male, 150 mg/kg, pulse treatment 5 W (3/2): 3 weeks on, 2 weeks off) of the same compound?
Its K/BW ratio is 4.71 ± 0.69 %.

And the “Kidney to body weight ratio and cystic volumes” value (jck mouse model of PKD; jck mice, 50 and 150 mg/kg)?
The value was “reduction of the kidney to body weight ratio and cystic volumes in a dose dependent manner”.

What about the “PKD in jck/jck females” value (jck mouse model of PKD; jck/jck females) of the same compound?
The value was “inhibited PKD”.

And the “PKD in cpk mice” value (cpk model of PKD; 100 mg/kg daily from day 7 till day 21)?
Its value is “reduction of PKD”.

And the K/BW ratio (cpk model of PKD; cpk mice, 100 mg/kg IP daily, day 7 till day 21)?
The K/BW ratio was 19.25 ± 3.17 %.

What about the IC50 (MDCK cysts [1]) of the same compound?
The IC50 was ~20 µM.

`CC[C@@H](CO)Nc1nc(NCc2ccccc2)c2ncn(C(C)C)c2n1` [S-Roscovitine] was tested. Which IC50 (MDCK cysts [2]) did it give?
Its IC50 is ~30 µM.
